PubChem BioAssay AID1259425, University of Nebraska Medical Center | 2018

Test: 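Seek colon cancer weak points whose silencing resembles KSR1 loss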 (primary screen)
Cells: HCT116 human colon cancer cells
Knock-down reagent: siRNA pool against human genes, 50 nM siRNA
Detection: 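After 50 nM siRNA pool, branched-DNA assay measures six marker transcripts per well, minus blank, normalised to the geometric mean of two housekeeping transcripts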
Reading the numbers: BNIP3L mRNA: higher = more BNIP3L transcript after knockdown; NDRG1 mRNA: higher = more NDRG1 transcript after knockdown; BNIP3 mRNA: higher = more BNIP3 transcript after knockdown
In all, the deposit lists about 14,000 reagents; this is a part drawn at random. Not all columns of the deposit are shown. Reagent sequences are not shown. Not stated in the record: the time to read-out.

no.	Gene	BNIP3L mRNA, set 1	NDRG1 mRNA, set 1	BNIP3 mRNA, set 1
1	IL18	0.102	0.119	0.243
2	PFKFB3	0.106	0.149	0.223
3	MORC1	0.167	0.273	0.317
4	HMGB1P10	0.166	0.105	0.334
5	TNFAIP3	0.118	0.188	0.31
6	VLDLR	0.098	0.089	0.293
7	SLAMF8	0.0649	0.115	0.27
8	PNRC1	0.0917	0.175	0.243
9	ACTL7A	0.0507	0.105	0.311
10	VPS13D	0.0748	0.256	0.255
11	METTL25	0.12	0.075	0.253
12	ATP2A2	0.127	0.287	0.217
13	ZEB1	0.0908	0.133	0.2
14	ING3	0.0486	0.164	0.121
15	ANXA7	0.0597	0.231	0.502
16	NPLOC4	0.162	0.241	0.414
17	TRIM49	0.18	0.215	0.293
18	TUBG2	0.141	0.228	0.34
19	MCAT	0.244	0.408	0.379
20	CD1C	0.121	0.251	0.341
21	COL4A3	0.112	0.183	0.291
22	TRAPPC2L	0.144	0.475	0.342
23	KIF7	0.134	0.331	0.253
24	TEAD2	0.111	0.246	0.183
25	KCNA2	0.15	0.154	0.334
26	LUC7L	0.112	0.217	0.321
27	POLL	0.154	0.0927	0.269
28	TCHH	0.117	0.0985	0.249
29	ELL3	0.157	0.495	0.314
30	ZNF544	0.25	0.207	0.402
31	KCNC3	0.217	0.383	0.319
32	TFAP4	0.0747	0.113	0.283
33	FHIP2B	0.102	0.0808	0.35
34	SLC25A17	0.124	0.261	0.389
35	SNRPD1	0.161	0.283	0.225
36	MARCO	0.101	0.284	0.289
37	KCNV2	0.118	0.21	0.273
38	GJC1	0.0943	0.0877	0.276
39	SULT2B1	0.33	0.462	0.365
40	IL21R	0.0782	0.097	0.266
41	MGAT3	0.0473	0.133	0.205
42	PRSS22	0.0954	0.194	0.217
43	NCLN	0.217	0.128	0.156
44	CALML5	0.0453	0.0259	0.251
45	PAMR1	0.115	0.197	0.443
46	NFE2	0.0588	0.176	0.275
47	CBR4	0.134	0.183	0.308
48	VCAN	0.136	0.105	0.291
49	SUMO1	0.143	0.557	0.175
50	GPR55	0.34	0.274	0.261

6 consecutive records already listed:
no.	Gene	BNIP3L mRNA, set 1	NDRG1 mRNA, set 1	BNIP3 mRNA, set 1
28	TCHH	0.117	0.0985	0.249
29	ELL3	0.157	0.495	0.314
30	ZNF544	0.25	0.207	0.402
31	KCNC3	0.217	0.383	0.319
32	TFAP4	0.0747	0.113	0.283
33	FHIP2B	0.102	0.0808	0.35
